# In the supplement of paper PMC8728848:
# Some of the results follow.
# Assays:
# Test in all cases: glycan array binding signal (z-score within array); higher = stronger binding
# Details in all cases: glycan notation: IUPAC condensed, linker removed
# [1] = molecular target: GalNAc(b1-4)GlcNAc(b1-2)Man
# Summary of the method: (§1)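 Glycan array data were curated from 3228 arrays in the Consortium for Functional Glycomics database and kept only where the protein sequence was available. Glycan names were converted to IUPAC-condensed notation, and columns mapping to the same glycan were averaged. The binding signal is a within-array Z-score, averaged across arrays of the same protein sequence at different concentrations or buffers and across linkers. Negative Z-scores can be read as non-binding.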
# [2] = molecular target: GalNAc(b1-4)GlcNAc(b1-2)Man(a1-3)[GalNAc(b1-4)GlcNAc(b1-2)Man(a1-6)]Man(b1-4)GlcNAc(b1-4)GlcNAc
# Summary of the method: as §1
# [3] = molecular target: GalNAc(b1-4)GlcNAc(b1-3)GalNAc(b1-4)GlcNAc
# Summary of the method: as §1
# [4] = molecular target: GalNAc(b1-4)GlcNAc6S
# Summary of the method: as §1
# [5] = molecular target: GalNAc(b1-6)GalNAc
# Summary of the method: as §1
# [6] = molecular target: GalNAc3S(b1-4)GlcNAc
# Summary of the method: as §1
# [7] = molecular target: GalNAc3S(b1-4)GlcNAc3S
# Summary of the method: as §1
# [8] = molecular target: GalNAc3S(b1-4)[Fuc(a1-3)]GlcNAc
# Summary of the method: as §1
# [9] = molecular target: GalNAc4S6S(b1-4)GlcNAc
# Summary of the method: as §1
# [10] = molecular target: GalNAc6S(b1-4)GlcNAc
# Summary of the method: as §1
# [11] = molecular target: Glc(a1-4)Glc
# Summary of the method: as §1
# [12] = molecular target: Glc(a1-4)Glc(a1-4)Glc(a1-4)Glc
# Summary of the method: as §1
# [13] = molecular target: Glc(a1-6)Glc(a1-6)Glc
# Summary of the method: as §1
# [14] = molecular target: Glc(a1-6)Glc(a1-6)Glc(a1-6)Glc
# Summary of the method: as §1
# [15] = molecular target: Glc(b1-4)Glc
# Summary of the method: as §1
# [16] = molecular target: Glc(b1-6)Glc
# Summary of the method: as §1
# [17] = molecular target: GlcA(b1-3)Gal
# Summary of the method: as §1
# [18] = molecular target: GlcA(b1-3)GlcNAc
# Summary of the method: as §1
# [19] = molecular target: GlcA(b1-6)Gal
# Summary of the method: as §1
# [20] = molecular target: GlcA3S(b1-3)Gal(b1-4)GlcNAc(b1-2)Man
# Summary of the method: as §1
# [21] = molecular target: GlcA3S(b1-3)Gal(b1-4)GlcNAc(b1-3)Gal(b1-4)Glc
# Summary of the method: as §1
# [22] = molecular target: GlcNAc(a1-3)Gal(b1-4)GlcNAc
# Summary of the method: as §1
# [23] = molecular target: GlcNAc(a1-4)Gal(b1-3)GlcNAc
# Summary of the method: as §1
# [24] = molecular target: GlcNAc(a1-4)Gal(b1-4)GalNAc
# Summary of the method: as §1
# [25] = molecular target: GlcNAc(a1-4)Gal(b1-4)GlcNAc
# Summary of the method: as §1
# [26] = molecular target: GlcNAc(a1-4)Gal(b1-4)GlcNAc(b1-3)Gal(b1-4)Glc
# Summary of the method: as §1
# [27] = molecular target: GlcNAc(a1-4)Gal(b1-4)GlcNAc(b1-3)Gal(b1-4)GlcNAc
# Summary of the method: as §1
# [28] = molecular target: GlcNAc(a1-4)Gal(b1-4)GlcNAc(b1-3)Gal(b1-4)GlcNAc(b1-3)Gal(b1-4)GlcNAc
# Summary of the method: as §1
# [29] = molecular target: GlcNAc(a1-4)Gal(b1-4)GlcNAc(b1-3)Gal(b1-4)[Fuc(a1-3)]GlcNAc(b1-3)Gal(b1-4)[Fuc(a1-3)]GlcNAc
# Summary of the method: as §1
# [30] = molecular target: GlcNAc(a1-6)Gal(b1-4)GlcNAc
# Summary of the method: as §1
# [31] = molecular target: GlcNAc(b1-2)Gal(b1-3)GalNAc
# Summary of the method: as §1
# [32] = molecular target: GlcNAc(b1-2)Man(a1-3)[GlcNAc(b1-2)Man(a1-6)]Man(b1-4)GlcNAc(b1-4)GlcNAc
# Summary of the method: as §1
# [33] = molecular target: GlcNAc(b1-2)Man(a1-3)[GlcNAc(b1-2)Man(a1-6)]Man(b1-4)GlcNAc(b1-4)[Fuc(a1-6)]GlcNAc
# Summary of the method: as §1
# [34] = molecular target: GlcNAc(b1-2)Man(a1-3)[GlcNAc(b1-4)][GlcNAc(b1-2)Man(a1-6)]Man(b1-4)GlcNAc(b1-4)GlcNAc
# Summary of the method: as §1
# [35] = molecular target: GlcNAc(b1-2)Man(a1-3)[GlcNAc(b1-4)][GlcNAc(b1-2)Man(a1-6)]Man(b1-4)GlcNAc(b1-4)[Fuc(a1-6)]GlcNAc
# Summary of the method: as §1
# [36] = molecular target: GlcNAc(b1-2)[GlcNAc(b1-4)]Man(a1-3)[GlcNAc(b1-2)Man(a1-6)]Man(b1-4)GlcNAc(b1-4)GlcNAc
# Summary of the method: as §1
# [37] = molecular target: GlcNAc(b1-2)[GlcNAc(b1-4)]Man(a1-3)[GlcNAc(b1-4)][GlcNAc(b1-2)Man(a1-6)]Man(b1-4)GlcNAc(b1-4)GlcNAc
# Summary of the method: as §1
# [38] = molecular target: GlcNAc(b1-2)[GlcNAc(b1-4)]Man(a1-3)[GlcNAc(b1-4)][GlcNAc(b1-2)[GlcNAc(b1-6)]Man(a1-6)]Man(b1-4)GlcNAc(b1-4)GlcNAc
# Summary of the method: as §1
# [39] = molecular target: GlcNAc(b1-2)[GlcNAc(b1-4)]Man(a1-3)[GlcNAc(b1-4)][GlcNAc(b1-2)[GlcNAc(b1-6)]Man(a1-6)]Man(b1-4)GlcNAc(b1-4)[Fuc(a1-6)]GlcNAc
# Summary of the method: as §1
# [40] = molecular target: GlcNAc(b1-2)[GlcNAc(b1-6)]Man(a1-6)[GlcNAc(b1-2)Man(a1-3)]Man(b1-4)GlcNAc(b1-4)GlcNAc
# Summary of the method: as §1
# [41] = molecular target: GlcNAc(b1-2)[GlcNAc(b1-6)]Man(a1-6)[GlcNAc(b1-2)Man(a1-3)]Man(b1-4)GlcNAc(b1-4)[Fuc(a1-6)]GlcNAc
# Summary of the method: as §1
# [42] = molecular target: GlcNAc(b1-2)[GlcNAc(b1-6)]Man(a1-6)[GlcNAc(b1-4)][GlcNAc(b1-2)Man(a1-3)]Man(b1-4)GlcNAc(b1-4)GlcNAc
# Summary of the method: as §1
# [43] = molecular target: GlcNAc(b1-3)Fuc
# Summary of the method: as §1
# [44] = molecular target: GlcNAc(b1-3)Gal
# Summary of the method: as §1
# [45] = molecular target: GlcNAc(b1-3)Gal(b1-3)GalNAc
# Summary of the method: as §1
binder,measurement,setting,value
pilr alpha (protein) MLYGVTQPKHLSASMGGSVEIPFSFYYPWELATAPDVRISWRRGHFHRQSFYSTRPPSIHKDYVNRLFLNWTEGQKSGFLRISNLQKQDQSVYFCRVELDTRSSGRQQWQSIEGTKLSIT,glycan array binding signal (z-score),[1],-0.351
same,glycan array binding signal (z-score),[2],0.029
same,glycan array binding signal (z-score),[3],-0.695
same,glycan array binding signal (z-score),[4],-0.266
same,glycan array binding signal (z-score),[5],0.632
same,glycan array binding signal (z-score),[6],-0.736
same,glycan array binding signal (z-score),[7],-0.48
same,glycan array binding signal (z-score),[8],0.061
same,glycan array binding signal (z-score),[9],-0.748
same,glycan array binding signal (z-score),[10],-0.996
same,glycan array binding signal (z-score),[11],-0.097
same,glycan array binding signal (z-score),[12],-0.727
same,glycan array binding signal (z-score),[13],-0.27
same,glycan array binding signal (z-score),[14],0.34
same,glycan array binding signal (z-score),[15],-0.012
same,glycan array binding signal (z-score),[16],0.346
same,glycan array binding signal (z-score),[17],-0.13
same,glycan array binding signal (z-score),[18],-0.74
same,glycan array binding signal (z-score),[19],0.717
same,glycan array binding signal (z-score),[20],-0.175
same,glycan array binding signal (z-score),[21],-0.369
same,glycan array binding signal (z-score),[22],0.257
same,glycan array binding signal (z-score),[23],-0.739
same,glycan array binding signal (z-score),[24],0.004
same,glycan array binding signal (z-score),[25],0.713
same,glycan array binding signal (z-score),[26],-0.435
same,glycan array binding signal (z-score),[27],1
same,glycan array binding signal (z-score),[28],0.089
same,glycan array binding signal (z-score),[29],0.876
same,glycan array binding signal (z-score),[30],0.076
same,glycan array binding signal (z-score),[31],-0.313
same,glycan array binding signal (z-score),[32],0.089
same,glycan array binding signal (z-score),[33],-0.223
same,glycan array binding signal (z-score),[34],-0.774
same,glycan array binding signal (z-score),[35],0.109
same,glycan array binding signal (z-score),[36],-0.534
same,glycan array binding signal (z-score),[37],-0.801
same,glycan array binding signal (z-score),[38],0.141
same,glycan array binding signal (z-score),[39],-0.583
same,glycan array binding signal (z-score),[40],-0.365
same,glycan array binding signal (z-score),[41],-0.2
same,glycan array binding signal (z-score),[42],-0.182
same,glycan array binding signal (z-score),[43],1.32
same,glycan array binding signal (z-score),[44],-0.165
same,glycan array binding signal (z-score),[45],-0.214
